# According to the supplement of paper PMC8728848:
# The list shows a part of the results.
# Legend:
# Assay in all cases: glycan array binding signal (z-score within array); higher = stronger binding
# Details in all cases: glycan notation: IUPAC condensed, linker removed
# Fuc(a1-2)Gal = target: Fuc(a1-2)Gal
# Summary of the method: (§1)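 From the Consortium for Functional Glycomics database, 3228 arrays were curated, keeping only those whose protein sequence was available. Binding is given as a within-array Z-score averaged across arrays sharing a protein sequence and across linkers. Negative Z-scores can be read as non-binding.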
# Fuc(a1-2)Gal(b1-3)GalNAc = target: Fuc(a1-2)Gal(b1-3)GalNAc
# Summary of the method: as §1
# [1] = target: Fuc(a1-2)Gal(b1-3)GalNAc(a1-3)[Fuc(a1-2)]Gal(b1-4)Glc
# Summary of the method: as §1
# [2] = target: Fuc(a1-2)Gal(b1-3)GalNAc(a1-3)[Fuc(a1-2)]Gal(b1-4)GlcNAc
# Summary of the method: as §1
# [3] = target: Fuc(a1-2)Gal(b1-3)GalNAc(b1-3)Gal
# Summary of the method: as §1
# [4] = target: Fuc(a1-2)Gal(b1-3)GalNAc(b1-3)Gal(a1-4)Gal(b1-4)Glc
# Summary of the method: as §1
# [5] = target: Fuc(a1-2)Gal(b1-3)GalNAc(b1-4)[Neu5Ac(a2-3)]Gal(b1-4)Glc
# Summary of the method: as §1
# Fuc(a1-2)Gal(b1-3)GlcNAc = target: Fuc(a1-2)Gal(b1-3)GlcNAc
# Summary of the method: as §1
# [6] = target: Fuc(a1-2)Gal(b1-3)GlcNAc(b1-2)Man(a1-3)[Fuc(a1-2)Gal(b1-3)GlcNAc(b1-2)Man(a1-6)]Man(b1-4)GlcNAc(b1-4)GlcNAc
# Summary of the method: as §1
# [7] = target: Fuc(a1-2)Gal(b1-3)GlcNAc(b1-2)Man(a1-3)[Fuc(a1-2)Gal(b1-3)GlcNAc(b1-2)Man(a1-6)]Man(b1-4)GlcNAc(b1-4)[Fuc(a1-6)]GlcNAc
# Summary of the method: as §1
# [8] = target: Fuc(a1-2)Gal(b1-3)GlcNAc(b1-3)Gal(b1-4)Glc
# Summary of the method: as §1
# [9] = target: Fuc(a1-2)Gal(b1-3)GlcNAc(b1-3)GalNAc
# Summary of the method: as §1
# [10] = target: Fuc(a1-2)Gal(b1-3)GlcNAc(b1-3)[Fuc(a1-2)Gal(b1-3)GlcNAc(b1-6)]GalNAc
# Summary of the method: as §1
# [11] = target: Fuc(a1-2)Gal(b1-3)GlcNAc(b1-3)[Gal(b1-4)GlcNAc(b1-6)]Gal(b1-4)Glc
# Summary of the method: as §1
# [12] = target: Fuc(a1-2)Gal(b1-3)GlcNAc(b1-3)[Neu5Ac(a2-6)Gal(b1-4)GlcNAc(b1-6)]Gal(b1-4)Glc
# Summary of the method: as §1
# [13] = target: Fuc(a1-2)Gal(b1-3)GlcNAc6S
# Summary of the method: as §1
# [14] = target: Fuc(a1-2)Gal(b1-3)[Fuc(a1-4)]GlcNAc
# Summary of the method: as §1
# [15] = target: Fuc(a1-2)Gal(b1-3)[Fuc(a1-4)]GlcNAc(b1-2)Man(a1-3)[Fuc(a1-2)Gal(b1-3)[Fuc(a1-4)]GlcNAc(b1-2)Man(a1-3)]Man(b1-4)GlcNAc(b1-4)GlcNAc
# Summary of the method: as §1
# [16] = target: Fuc(a1-2)Gal(b1-3)[Fuc(a1-4)]GlcNAc(b1-2)Man(a1-3)[Fuc(a1-2)Gal(b1-3)[Fuc(a1-4)]GlcNAc(b1-2)Man(a1-6)]Man(b1-4)GlcNAc(b1-4)[Fuc(a1-6)]GlcNAc(b1-4)[Fuc(a1-6)]GlcNAc
# Summary of the method: as §1
# [17] = target: Fuc(a1-2)Gal(b1-3)[Fuc(a1-4)]GlcNAc(b1-3)[Fuc(a1-3)[Gal(b1-4)]GlcNAc(b1-6)]Gal(b1-4)Glc
# Summary of the method: as §1
# [18] = target: Fuc(a1-2)Gal(b1-3)[Fuc(a1-4)]GlcNAc(b1-3)[Gal(b1-4)GlcNAc(b1-6)]Gal(b1-4)Glc
# Summary of the method: as §1
# [19] = target: Fuc(a1-2)Gal(b1-4)Fuc(a1-3)]GlcNAc(b1-2)Man(a1-3)[Fuc(a1-2)Gal(b1-4)[Fuc(a1-3)]GlcNAc(b1-2)Man(a1-6)]Man(b1-4)GlcNAc(b1-4)GlcNAc
# Summary of the method: as §1
# Fuc(a1-2)Gal(b1-4)Glc = target: Fuc(a1-2)Gal(b1-4)Glc
# Summary of the method: as §1
# Fuc(a1-2)Gal(b1-4)Glc6S = target: Fuc(a1-2)Gal(b1-4)Glc6S
# Summary of the method: as §1
# Fuc(a1-2)Gal(b1-4)GlcNAc = target: Fuc(a1-2)Gal(b1-4)GlcNAc
# Summary of the method: as §1
# [20] = target: Fuc(a1-2)Gal(b1-4)GlcNAc(b1-2)Man
# Summary of the method: as §1
# [21] = target: Fuc(a1-2)Gal(b1-4)GlcNAc(b1-2)Man(a1-3)[Fuc(a1-2)Gal(b1-4)GlcNAc(b1-2)Man(a1-6)]Man(b1-4)GlcNAc(b1-4)GlcNAc
# Summary of the method: as §1
# [22] = target: Fuc(a1-2)Gal(b1-4)GlcNAc(b1-2)Man(a1-3)[Fuc(a1-2)Gal(b1-4)GlcNAc(b1-2)Man(a1-6)]Man(b1-4)GlcNAc(b1-4)[Fuc(a1-6)]GlcNAc
# Summary of the method: as §1
# [23] = target: Fuc(a1-2)Gal(b1-4)GlcNAc(b1-2)[Fuc(a1-2)Gal(b1-4)GlcNAc(b1-4)]Man(a1-3)[Fuc(a1-2)Gal(b1-4)GlcNAc(b1-2)Man(a1-6)]Man(b1-4)GlcNAc(b1-4)GlcNAc
# Summary of the method: as §1
# [24] = target: Fuc(a1-2)Gal(b1-4)GlcNAc(b1-3)Gal(b1-4)GlcNAc
# Summary of the method: as §1
binder,measurement,setting,value
"HopZSSI-T (Helicobacter pylori), B5Z6D0 (protein) MGSSHHHHHHSSGLVPRGSHMENLYFQGEDNGFFISAGYQIGEAAQMVKNTGELKKLSDTYENLSNLLTNFNNLNQAVTNASSPSEINAAIDNLKANTQGLTGEKTNSPAYQAVYLALNAAVGLWNVIAYNVQCGPGNSSQQSVTFEGQPGHNSSSINCNLTGYNNGVSGPLSIDNFKQLNQAYQVLQQALKQGVPVLNNTNQKIEVKVTTQTNGQSSKETTTTTTTNDAQTLLQEASKMIDVLTTNCPWVNHNPGQNGGAPWGLIRQECVSGFATEFSAVTSMIKNAQEIVTQAQSLNANQNNQNAPQDFNPYTSADRAFAQNMLNHAQAQAKILELADQMKKDLNTIPSQFITNYLAACRIDGTTPSQGVTNNTWGAGCAYVEETITALNNSLAHFGTQAEQIKQSELLARTILDFRGSLSTLNSTYNSITTTASNTPNSPFLKNLISQSTNPNNPGGLQAVYQVNQSAYSQLLSATQELGHNPFRRIGLISSQT",glycan array binding signal (z-score),Fuc(a1-2)Gal,-0.396
same,glycan array binding signal (z-score),Fuc(a1-2)Gal(b1-3)GalNAc,-0.094
same,glycan array binding signal (z-score),[1],0.527
same,glycan array binding signal (z-score),[2],-0.483
same,glycan array binding signal (z-score),[3],-0.811
same,glycan array binding signal (z-score),[4],-0.42
same,glycan array binding signal (z-score),[5],-0.586
same,glycan array binding signal (z-score),Fuc(a1-2)Gal(b1-3)GlcNAc,-0.332
same,glycan array binding signal (z-score),[6],0.172
same,glycan array binding signal (z-score),[7],-0.513
same,glycan array binding signal (z-score),[8],-0.384
same,glycan array binding signal (z-score),[9],-0.241
same,glycan array binding signal (z-score),[10],0.21
same,glycan array binding signal (z-score),[11],-0.753
same,glycan array binding signal (z-score),[12],-0.354
same,glycan array binding signal (z-score),[13],0.267
same,glycan array binding signal (z-score),[14],-0.383
same,glycan array binding signal (z-score),[15],-0.261
same,glycan array binding signal (z-score),[16],-0.069
same,glycan array binding signal (z-score),[17],-0.186
same,glycan array binding signal (z-score),[18],-0.374
same,glycan array binding signal (z-score),[19],0.118
same,glycan array binding signal (z-score),Fuc(a1-2)Gal(b1-4)Glc,-0.021
same,glycan array binding signal (z-score),Fuc(a1-2)Gal(b1-4)Glc6S,-0.037
same,glycan array binding signal (z-score),Fuc(a1-2)Gal(b1-4)GlcNAc,-0.171
same,glycan array binding signal (z-score),[20],0.313
same,glycan array binding signal (z-score),[21],-0.414
same,glycan array binding signal (z-score),[22],0.475
same,glycan array binding signal (z-score),[23],0.381
same,glycan array binding signal (z-score),[24],-0.211

# Reformatted: results already given
binder	measurement	setting	value
HopZSSI-T (Helicobacter pylori), B5Z6D0 (protein) MGSSHHHHHHSSGLVPRGSHMENLYFQGEDNGFFISAGYQIGEAAQMVKNTGELKKLSDTYENLSNLLTNFNNLNQAVTNASSPSEINAAIDNLKANTQGLTGEKTNSPAYQAVYLALNAAVGLWNVIAYNVQCGPGNSSQQSVTFEGQPGHNSSSINCNLTGYNNGVSGPLSIDNFKQLNQAYQVLQQALKQGVPVLNNTNQKIEVKVTTQTNGQSSKETTTTTTTNDAQTLLQEASKMIDVLTTNCPWVNHNPGQNGGAPWGLIRQECVSGFATEFSAVTSMIKNAQEIVTQAQSLNANQNNQNAPQDFNPYTSADRAFAQNMLNHAQAQAKILELADQMKKDLNTIPSQFITNYLAACRIDGTTPSQGVTNNTWGAGCAYVEETITALNNSLAHFGTQAEQIKQSELLARTILDFRGSLSTLNSTYNSITTTASNTPNSPFLKNLISQSTNPNNPGGLQAVYQVNQSAYSQLLSATQELGHNPFRRIGLISSQT	glycan array binding signal (z-score)	[9]	-0.241
same	glycan array binding signal (z-score)	[10]	0.21
same	glycan array binding signal (z-score)	[11]	-0.753
same	glycan array binding signal (z-score)	[12]	-0.354
same	glycan array binding signal (z-score)	[13]	0.267
